Assay results taken from PubChem BioAssay AID493014 (National Center for Advancing Translational Sciences (NCATS), 2011).
The other results are listed elsewhere or left out. These are further read-outs of the screen, such as a control signal, another cell line or another target. No call is given for them. Compounds called inactive in the main read-out are mostly missing here. Potencies come from curve fits of mixed quality, noted in brackets.

Assay: qHTS Assay to Find Inhibitors of Chronic Active B-Cell Receptor Signaling
Conditions: ABC-DLBCL IkBa-CBG/CBR reporter, luminescence ratio (green luciferase fused to IkBa over red control in TMD8 lymphoma cells), 4 h
Outline: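 Doxycycline induced both beetle luciferases in TMD8 lymphoma cells; IKK-driven degradation limits the IkappaBalpha-fused green signal, while red luminescence normalises for cell number and nonspecific effects. Compounds tested up to 46 uM, 4 hrs.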

[1] = measured here: CBR red luminescence, cell number
[2] = measured here: IkBa-CBG green luminescence

Structure (SMILES)	AC50 [1]	AC50 [2]
COc1ccc(C2NC3=C(CCC3)C3(C#N)C4(N=C(N)C23C#N)OCCO4)cc1 (configuration not stated)	35.5 µM [falling, partial curve, poor fit]	–
Cc1ccc(C2NC(c3ccc(C)cc3)C(C)C(=O)C2C)cc1 (configuration not stated)	14.1 µM [rising, single point]	–
O=C(c1ccco1)N1CCN(c2cccc(Cl)c2)CC1	0.82 µM [rising, full curve, poor fit]	–
O=C(NCC1CCN(Cc2cccc(Cl)c2)CC1)Nc1ccc(Cl)cc1	2.51 µM [rising, partial curve, poor fit]	–
Cc1ccnc(NS(=O)(=O)c2ccc(NC(=O)c3oc4ccccc4c3C)cc2)n1	0.562 µM [falling, partial curve, poor fit]	–
CCCn1c(CCC(=O)Nc2ccccc2Cc2ccccc2)nc2cc(S(=O)(=O)N3CCOCC3)ccc21	6.51 µM [rising, single point]	–
COc1cccc(CNC(=O)Nc2cccs2)c1	5.62 µM [falling, partial curve, poor fit]	–
COC(=O)c1ccccc1NC(=O)/C=C/C(=O)O	29.1 µM [falling, single point]	–
COc1ccccc1NC(=O)C(C)OC(=O)c1nc2nc(C)cc(C)n2n1 (configuration not stated)	0.411 µM [rising, full curve, poor fit]	–
Cc1ccc2nc(SCC(=O)Nc3cccc4ccccc34)nc(=O)n2c1	0.13 µM [falling, full curve, poor fit]	–
C[C@H](NC(=O)N1CCn2c1nc1ccccc12)C(=O)NCc1ccc2c(c1)OCO2	35.5 µM [falling, single point]	–
O=C(/C=C/c1ccccc1)NCCC1=CCCCC1	29.1 µM [falling, single point]	–
C=CCNCC#CCOc1ccc(OC)cc1	0.411 µM [rising, full curve, poor fit]	–
Cc1nccc(-c2cc(-c3ccc(Cl)cc3Cl)no2)n1	2 µM [rising, full curve, poor fit]	–
Cn1cc(CN(CCO)Cc2cccs2)c(-c2cccc(Cl)c2)n1	22.4 µM [falling, single point]	–
CN(Cc1ccccc1F)c1ncnc2sccc12	22.4 µM [falling, single point]	–
CCC(=O)Nc1cccc(NC(=O)c2ccc(Br)cc2)c1	1.46 µM [falling, full curve, poor fit]	–
CN(CC(=O)Nc1cccc(F)c1)CC(=O)N1CCCCC1	29.1 µM [rising, partial curve, poor fit]	–
COc1ccc(C(=O)O/N=C(\C)c2cnccn2)cc1	15.8 µM [rising, partial curve, poor fit]	–
O=C(Nc1cccc(C(=O)O)c1)/C(=C\c1ccc2c(c1)OCO2)NC(=O)c1ccco1	31.6 µM [rising, single point]	–
COc1ccc(-c2cnc(N)n2C)cc1	35.5 µM [falling, partial curve, poor fit]	–
Cc1cc(C)nc(-n2nc(C)cc2NC(=O)CNC(C)c2ccccc2)n1 (configuration not stated)	0.794 µM [rising, partial curve, poor fit]	–

Structure (SMILES)	AC50 [1]	AC50 [2]
COC(=O)C1(Cc2cc(-c3ccc(Cl)cc3)no2)CCN(C(=O)OC(C)(C)C)CC1	12.6 µM [rising, partial curve, poor fit]	–
COc1ccc(CNC(=O)COC(=O)c2ccc(S(=O)(=O)NCc3ccco3)cc2)cc1	5.17 µM [rising, single point]	–
CSc1cccc(NC(=O)Nc2ccccc2C(N)=O)c1	35.5 µM [falling, single point]	–
COC(=O)CN(C)C1CC(=O)N(c2ccc(Cl)cc2)C1=O (configuration not stated)	23.1 µM [falling, single point]	–
NC(=O)c1ccsc1NC(=O)COC(=O)Cc1c[nH]c2ccccc12	11.6 µM [falling, partial curve, poor fit]	–
N#Cc1c(NCCN)nc(-c2ccco2)c2c1CCCC2	6.51 µM [falling, partial curve, poor fit]	6.51 µM [rising, partial curve, poor fit]
COc1ccccc1NC(=O)Cc1noc(CSc2cccc[n+]2[O-])n1	–	29.1 µM [falling, single point]
COc1ccccc1N1CCN(C2=Nc3cccc4cccc2c34)CC1	35.5 µM [falling, single point]	–
CC1CC(OCC(O)CN2CCCCC2C)CC(C)(C)C1 (configuration not stated)	0.708 µM [rising, full curve, poor fit]	–
O=C1OCC2=C1C(c1ccc(F)cc1)c1cc3c(cc1N2)OCO3 (configuration not stated)	0.708 µM [rising, full curve, poor fit]	0.355 µM [falling, full curve, poor fit]
Cc1cccc(C)c1N=Nc1c(C)cc(O)cc1C	17.8 µM [rising, partial curve]	–
CN(C)CC#CCCCCCCC#CCN(C)C	1.16 µM [falling, partial curve, poor fit]	–
Cc1cc(NC(=O)Cc2cccs2)nn1CC(=O)NCc1ccco1	16.4 µM [rising, single point]	–
Cc1nc(Nc2cccc(Cl)c2)c2oc3ccccc3c2n1	12.6 µM [falling, single point]	–
CC(=O)c1cccc(NC(=S)NC(=O)CC(C)C)c1	3.26 µM [rising, full curve, poor fit]	–
COc1ccc(-c2nc(N/N=C(\C)c3ccc(O)cc3)c3ccccc3n2)cc1	3.98 µM [rising, partial curve, poor fit]	–
CCCSCCCNC(=O)CC1Oc2ccccc2NC1=O (configuration not stated)	23.1 µM [falling, partial curve, poor fit]	–
COC(=O)c1cc(NC(=O)c2ccccc2)c(=O)oc1C	12.6 µM [falling, partial curve, poor fit]	–
Cc1ccccc1C(=O)N1CCN(CCNC(=O)C(=O)Nc2ccc(Br)cc2)CC1	15.8 µM [falling, partial curve]	–
Cc1ccc(C(C)C)c(OCCNC(=S)Nc2cccc3ccccc23)c1	–	18.4 µM [rising, partial curve, poor fit]
Cc1cc(C)n(CCc2nc(-c3ccc(C(C)(C)C)cc3)cs2)n1	8.2 µM [falling, full curve, poor fit]	–
Cc1cc(C)n(CC(=O)NNC(=O)COc2ccc(Cl)cc2Cl)n1	6.51 µM [falling, single point]	–

Structure (SMILES)	AC50 [1]	AC50 [2]
CCOC(=O)c1sc(NC(=O)c2ccccc2)cc1C	25.9 µM [falling, partial curve, poor fit]	–
Cc1ccc(OC/C(O)=C(\C#N)c2nc3ccccc3s2)cc1	1.16 µM [falling, full curve, poor fit]	–
Fc1ccccc1CNC(=S)Nc1ccc(Cl)cc1	0.461 µM [rising, full curve]	–
Cc1c(C(=O)Nc2ccccc2)oc2c1C(=O)CC(C)(C)C2	29.1 µM [falling, single point]	–
O=C(CN(Cc1ccccc1)S(=O)(=O)c1ccc(Br)cc1)NCc1ccco1	18.4 µM [falling, partial curve, poor fit]	–
OC(CCN1CCCCC1)(c1ccccc1)C1C[C@@H]2C=C[C@H]1C2 (some centres not stated)	29.1 µM [falling, single point]	–
O=C(O)CCCC(=O)Nc1cccc(-c2nc3ccccc3[nH]2)c1	35.5 µM [falling, partial curve, poor fit]	–
COC(=O)c1cccc(NC(=O)Cc2nc(-c3ccccc3)sc2-c2ccc(C)cc2)c1	2.59 µM [rising, full curve]	–
O=C1/C(=C/c2ccccn2)SC(=S)N1c1ccc(O)cc1	10 µM [falling, partial curve, poor fit]	–
COc1cccc2cc(C(=O)NCCC3=CCCCC3)c(=O)oc12	7.08 µM [falling, partial curve, poor fit]	–
O=C(COc1c(Cl)cccc1Cl)NN1C(=O)CSC1=S	0.891 µM [falling, full curve, poor fit]	–
CN(CC1COc2ccccc2O1)C(=S)NC1CCCCC1 (configuration not stated)	5.62 µM [rising, single point]	–
COc1cccc(CNC(=O)c2cc(C3CC3)nc3c2cnn3C(C)C)c1	29.1 µM [falling, single point]	–
COc1ccc(C(CC(=O)Nc2nccs2)C(C)C)cc1 (configuration not stated)	10 µM [falling, partial curve, poor fit]	–
CCOC(=O)c1c(NC(=O)CCl)sc(C(=O)N(CC)CC)c1C	5.17 µM [falling, full curve]	–
CCOC(=O)C1(Cc2ccccc2)CCN(Cc2ccc(C3CCCCO3)s2)CC1 (configuration not stated)	11.2 µM [rising, single point]	–
CC(=O)c1ccc(NC(=O)Nc2sc(NS(=O)(=O)c3ccccc3)nc2C)cc1	11.2 µM [falling, single point]	–
CCc1cccc(NC(=O)Cn2ncn3c(cc4ccccc43)c2=O)c1	3.55 µM [rising, partial curve, poor fit]	–
COc1ccc(CNC(=O)CN2C(=O)NC3(CCCc4sccc43)C2=O)cc1OC (configuration not stated)	20.6 µM [rising, partial curve]	–
C=C(C)COc1ccc(-c2ncncc2-c2ccc(Br)cc2)c(O)c1	6.31 µM [rising, single point]	–
Cc1sc(N/N=C/c2ccco2)nc1-c1ccccc1	32.6 µM [falling, single point]	–

In a second layout: entries from further up
Structure (SMILES) | AC50 [1] | AC50 [2]
Cc1cc(C)n(CC(=O)NNC(=O)COc2ccc(Cl)cc2Cl)n1 | 6.51 µM [falling, single point] | –
Fc1ccccc1CNC(=S)Nc1ccc(Cl)cc1 | 0.461 µM [rising, full curve] | –
O=C(CN(Cc1ccccc1)S(=O)(=O)c1ccc(Br)cc1)NCc1ccco1 | 18.4 µM [falling, partial curve, poor fit] | –
OC(CCN1CCCCC1)(c1ccccc1)C1C[C@@H]2C=C[C@H]1C2 (some centres not stated) | 29.1 µM [falling, single point] | –
O=C(O)CCCC(=O)Nc1cccc(-c2nc3ccccc3[nH]2)c1 | 35.5 µM [falling, partial curve, poor fit] | –
COC(=O)c1cccc(NC(=O)Cc2nc(-c3ccccc3)sc2-c2ccc(C)cc2)c1 | 2.59 µM [rising, full curve] | –
O=C1/C(=C/c2ccccn2)SC(=S)N1c1ccc(O)cc1 | 10 µM [falling, partial curve, poor fit] | –
COc1cccc2cc(C(=O)NCCC3=CCCCC3)c(=O)oc12 | 7.08 µM [falling, partial curve, poor fit] | –
O=C(COc1c(Cl)cccc1Cl)NN1C(=O)CSC1=S | 0.891 µM [falling, full curve, poor fit] | –
CN(CC1COc2ccccc2O1)C(=S)NC1CCCCC1 (configuration not stated) | 5.62 µM [rising, single point] | –
COc1cccc(CNC(=O)c2cc(C3CC3)nc3c2cnn3C(C)C)c1 | 29.1 µM [falling, single point] | –
COc1ccc(C(CC(=O)Nc2nccs2)C(C)C)cc1 (configuration not stated) | 10 µM [falling, partial curve, poor fit] | –
CCOC(=O)c1c(NC(=O)CCl)sc(C(=O)N(CC)CC)c1C | 5.17 µM [falling, full curve] | –
CCOC(=O)C1(Cc2ccccc2)CCN(Cc2ccc(C3CCCCO3)s2)CC1 (configuration not stated) | 11.2 µM [rising, single point] | –
CC(=O)c1ccc(NC(=O)Nc2sc(NS(=O)(=O)c3ccccc3)nc2C)cc1 | 11.2 µM [falling, single point] | –
CCc1cccc(NC(=O)Cn2ncn3c(cc4ccccc43)c2=O)c1 | 3.55 µM [rising, partial curve, poor fit] | –
COc1ccc(CNC(=O)CN2C(=O)NC3(CCCc4sccc43)C2=O)cc1OC (configuration not stated) | 20.6 µM [rising, partial curve] | –
C=C(C)COc1ccc(-c2ncncc2-c2ccc(Br)cc2)c(O)c1 | 6.31 µM [rising, single point] | –
Cc1sc(N/N=C/c2ccco2)nc1-c1ccccc1 | 32.6 µM [falling, single point] | –
